# Results as given in article PMC10739811.
# Target: Flag-tagged human BACH1 lacking the BTB domain (BACH1^ΔBTB) (human)
# Assay: co-IP; HEK293T cells co-transfected with PTP1B-HA or IR-β-GFP and Flag-tagged BACH1 (full or lacking the BTB domain); precipitated with anti-Flag, blot with anti-HA or anti-GFP
binder,measurement,value
"human PTP1B-HA (enzyme, UniProt P18031 1-435) MEMEKEFEQIDKSGSWAAIYQDIRHEASDFPCRVAKLPKNKNRNRYRDVSPFDHSRIKLHQEDNDYINASLIKMEEAQRSYILTQGPLPNTCGHFWEMVWEQKSRGVVMLNRVMEKGSLKCAQYWPQKEEKEMIFEDTNLKLTLISEDIKSYYTVRQLELENLTTQETREILHFHYTTWPDFGVPESPASFLNFLFKVRESGSLSPEHGPVVVHCSAGIGRSGTFCLADTCLLLMDKRKDPSSVDIKKVLLEMRKFRMGLIQTADQLRFSYLAVIEGAKFIMGDSSVQDQWKELSHEDLEPPPEHIPPPPRPPKRILEPHNGKCREFFPNHQWVKEETQEDKDCPIKEEKGSPLNAAPYGIESMSQDTEVRSRVVGGSLRGAQAASPAKGEPSLPEKDEDHALSYWKPFLVNMCVATVLTAGAYLCYRFLFNSNT",binding,no binding

# These are yes or no findings as the source states them, for the method shown. In cells and extracts the contact can be indirect. Sequences can lack the tags named with a protein.
